# Results from the supplement of paper PMC8728848.
# The list shows a part of the results.
# B1: Clec18Av1 (Homo sapiens), A5D8T8 (protein)
# chain: MLHPETSPGRGHLLAVLLALLGTAWAEVWPPQLQEQAPMAGALNRKESFLLLSLHNRLRSWVQPPAADMRRLDWSDSLAQLAQARAALCGTPTPSLASGLWRTLQVGWNMQLLPAGLVSFVEVVSLWFAEGQRYSHAAGECARNATCTHYTQLVWATSSQLGCGRHLCSAGQAAIEAFVCAYSPRGNWEVNGKTIVPYKKGAWCSLCTASVSGCFKAWDHAGGLCEVPRNPCRMSCQNHGRLNISTCHCHCPPGYTGRYCQVRCSLQCVHGRFREEECSCVCDIGYGGAQCATKVHFPFHTCDLRIDGDCFMVSSEADTYYRARMKCQRKGGVLAQIKSQKVQDILAFYLGRLETTNEVIDSDFETRNFWIGLTYKTAKDSFRWATGEHQAFTSFAFGQPDNHGFGNCVELQASAAFNWNDQRCKTRNRYICQFAQEHISRWGPGS
# Assays:
# Experiment in all cases: glycan array binding signal (z-score within array); higher = stronger binding
# Details in all cases: glycan notation: IUPAC condensed, linker removed
# [1] = molecular target: Gal(b1-2)Gal
# In short: (§1)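 Arrays were curated from the Consortium for Functional Glycomics database, 3228 in total, and kept only where the protein sequence was available. Binding is expressed as a within-array Z-score. This score was averaged across arrays of the same protein sequence at different concentrations or buffers and across linkers, and negative values can be read as non-binding.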
# [2] = molecular target: Gal(b1-3)Gal
# In short: as §1
# [3] = molecular target: Gal(b1-3)Gal(b1-4)GlcNAc
# In short: as §1
# [4] = molecular target: Gal(b1-3)GalNAc
# In short: as §1
# [5] = molecular target: Gal(b1-3)GalNAc(a1-3)[Fuc(a1-2)]Gal(b1-4)Glc
# In short: as §1
# [6] = molecular target: Gal(b1-3)GalNAc(a1-3)[Fuc(a1-2)]Gal(b1-4)GlcNAc
# In short: as §1
# [7] = molecular target: Gal(b1-3)GalNAc(b1-3)Gal
# In short: as §1
# [8] = molecular target: Gal(b1-3)GalNAc(b1-3)Gal(a1-4)Gal(b1-4)Glc
# In short: as §1
# [9] = molecular target: Gal(b1-3)GalNAc(b1-4)Gal(b1-4)Glc
# In short: as §1
# [10] = molecular target: Gal(b1-3)GalNAc(b1-4)[Neu5Ac(a2-3)]Gal(b1-4)Glc
# In short: as §1
# [11] = molecular target: Gal(b1-3)GlcNAc
# In short: as §1
# [12] = molecular target: Gal(b1-3)GlcNAc(a1-3)Gal(b1-4)GlcNAc
# In short: as §1
# [13] = molecular target: Gal(b1-3)GlcNAc(a1-6)Gal(b1-4)GlcNAc
# In short: as §1
# [14] = molecular target: Gal(b1-3)GlcNAc(b1-2)Man
# In short: as §1
# [15] = molecular target: Gal(b1-3)GlcNAc(b1-2)Man(a1-3)[Gal(b1-3)GlcNAc(b1-2)Man(a1-6)]Man(b1-4)GlcNAc(b1-4)GlcNAc
# In short: as §1
# [16] = molecular target: Gal(b1-3)GlcNAc(b1-2)Man(a1-3)[Gal(b1-3)GlcNAc(b1-2)Man(a1-6)]Man(b1-4)GlcNAc(b1-4)[Fuc(a1-6)]GlcNAc
# In short: as §1
# [17] = molecular target: Gal(b1-3)GlcNAc(b1-2)Man(a1-3)[GlcNAc(b1-4)][Gal(b1-3)GlcNAc(b1-2)Man(a1-6)]Man(b1-4)GlcNAc(b1-4)GlcNAc
# In short: as §1
# [18] = molecular target: Gal(b1-3)GlcNAc(b1-2)[Gal(b1-3)GlcNAc(b1-6)]Man(a1-6)[Gal(b1-3)GlcNAc(b1-2)Man(a1-3)]Man(b1-4)GlcNAc(b1-4)GlcNAc
# In short: as §1
# [19] = molecular target: Gal(b1-3)GlcNAc(b1-3)Gal(b1-3)GlcNAc
# In short: as §1
# [20] = molecular target: Gal(b1-3)GlcNAc(b1-3)Gal(b1-4)Glc
# In short: as §1
# [21] = molecular target: Gal(b1-3)GlcNAc(b1-3)Gal(b1-4)GlcNAc
# In short: as §1
# [22] = molecular target: Gal(b1-3)GlcNAc(b1-3)Gal(b1-4)GlcNAc(b1-2)Man(a1-3)[Gal(b1-3)GlcNAc(b1-3)Gal(b1-4)GlcNAc(b1-2)Man(a1-6)]Man(b1-4)GlcNAc(b1-4)GlcNAc
# In short: as §1
# [23] = molecular target: Gal(b1-3)GlcNAc(b1-3)Gal(b1-4)GlcNAc(b1-2)[Gal(b1-3)GlcNAc(b1-3)Gal(b1-4)GlcNAc(b1-6)]Man(a1-6)[Gal(b1-3)GlcNAc(b1-3)Gal(b1-4)GlcNAc(b1-2)Man(a1-3)]Man(b1-4)GlcNAc(b1-4)[Fuc(a1-6)]GlcNAc
# In short: as §1
# [24] = molecular target: Gal(b1-3)GlcNAc(b1-3)Gal(b1-4)GlcNAc(b1-3)Gal(b1-4)GlcNAc(b1-2)[Gal(b1-3)GlcNAc(b1-3)Gal(b1-4)GlcNAc(b1-3)Gal(b1-4)GlcNAc(b1-6)]Man(a1-6)[Gal(b1-3)GlcNAc(b1-3)Gal(b1-4)GlcNAc(b1-3)Gal(b1-4)GlcNAc(b1-2)Man(a1-3)]Man(b1-4)GlcNAc(b1-4)[Fuc(a1-6)]GlcNAc
# In short: as §1
# [25] = molecular target: Gal(b1-3)GlcNAc(b1-3)Gal(b1-4)GlcNAc(b1-6)[Gal(b1-3)GlcNAc(b1-3)]Gal(b1-4)Glc
# In short: as §1
# [26] = molecular target: Gal(b1-3)GlcNAc(b1-3)Gal(b1-4)[Fuc(a1-3)]GlcNAc
# In short: as §1
# [27] = molecular target: Gal(b1-3)GlcNAc(b1-3)Gal(b1-4)[Fuc(a1-3)]GlcNAc(b1-6)[Gal(b1-3)GlcNAc(b1-3)]Gal(b1-4)Glc
# In short: as §1
# [28] = molecular target: Gal(b1-3)GlcNAc(b1-3)GalNAc
# In short: as §1
# [29] = molecular target: Gal(b1-3)GlcNAc(b1-6)Gal(b1-4)GlcNAc
# In short: as §1
# [30] = molecular target: Gal(b1-3)GlcNAc(b1-6)GalNAc
# In short: as §1
# [31] = molecular target: Gal(b1-3)GlcNAc(b1-6)[Gal(b1-3)]GalNAc
# In short: as §1
# [32] = molecular target: Gal(b1-3)GlcNAc6S
# In short: as §1
# [33] = molecular target: Gal(b1-3)[Fuc(a1-4)]GlcNAc
# In short: as §1
# [34] = molecular target: Gal(b1-3)[Fuc(a1-4)]GlcNAc(b1-2)Man
# In short: as §1
# [35] = molecular target: Gal(b1-3)[Fuc(a1-4)]GlcNAc(b1-2)Man(a1-3)[Gal(b1-3)[Fuc(a1-4)]GlcNAc(b1-2)Man(a1-6)]Man(b1-4)GlcNAc(b1-4)[Fuc(a1-6)]GlcNAc
# In short: as §1
# [36] = molecular target: Gal(b1-3)[Fuc(a1-4)]GlcNAc(b1-3)Gal(b1-3)[Fuc(a1-4)]GlcNAc
# In short: as §1
# [37] = molecular target: Gal(b1-3)[Fuc(a1-4)]GlcNAc(b1-3)Gal(b1-4)[Fuc(a1-3)]GlcNAc
# In short: as §1
binder,measurement,setting,value
B1,glycan array binding signal (z-score),[1],0.03
same,glycan array binding signal (z-score),[2],-0.011
same,glycan array binding signal (z-score),[3],-0.266
same,glycan array binding signal (z-score),[4],-0.279
same,glycan array binding signal (z-score),[5],0.731
same,glycan array binding signal (z-score),[6],1.2
same,glycan array binding signal (z-score),[7],1.09
same,glycan array binding signal (z-score),[8],-0.54
same,glycan array binding signal (z-score),[9],-0.002
same,glycan array binding signal (z-score),[10],0.133
same,glycan array binding signal (z-score),[11],0.468
same,glycan array binding signal (z-score),[12],0.532
same,glycan array binding signal (z-score),[13],4.04
same,glycan array binding signal (z-score),[14],-0.432
same,glycan array binding signal (z-score),[15],0.576
same,glycan array binding signal (z-score),[16],-0.36
same,glycan array binding signal (z-score),[17],0.885
same,glycan array binding signal (z-score),[18],-0.727
same,glycan array binding signal (z-score),[19],0.533
same,glycan array binding signal (z-score),[20],-0.411
same,glycan array binding signal (z-score),[21],-0.579
same,glycan array binding signal (z-score),[22],-0.749
same,glycan array binding signal (z-score),[23],-0.106
same,glycan array binding signal (z-score),[24],0.466
same,glycan array binding signal (z-score),[25],0.939
same,glycan array binding signal (z-score),[26],-0.636
same,glycan array binding signal (z-score),[27],0.375
same,glycan array binding signal (z-score),[28],0.798
same,glycan array binding signal (z-score),[29],-0.721
same,glycan array binding signal (z-score),[30],-0.223
same,glycan array binding signal (z-score),[31],0.084
same,glycan array binding signal (z-score),[32],1.38
same,glycan array binding signal (z-score),[33],-0.808
same,glycan array binding signal (z-score),[34],-0.248
same,glycan array binding signal (z-score),[35],0.227
same,glycan array binding signal (z-score),[36],-0.586
same,glycan array binding signal (z-score),[37],-0.826
